Experimental data as given in PMC4102417 (PLoS Neglected Tropical Diseases, 2014).
Counter-ions that a name gives are not always drawn.

Key:
[1] = in vitro; assay type: cell-based, murine; conditions: mouse, 3T3 fibroblasts, separate assays separated by semicolons, read-out: Mammalian cell CC50
[2] = system: 3T3 fibroblast cells; assay: in vitro; assay type: cell-based, murine; conditions: 3T3 fibroblasts, 72 hours; separate assays separated by semicolons; read-out: Mammalian cell CC50

CCCCc1oc2ccccc2c1C(=O)c1cc(I)c(OCCN(CC)CC)c(I)c1 [Amiodarone, (2-{4-[(2-butyl-1-benzofuran-3-yl)carbonyl]-2,6-diiodophenoxy}ethyl)diethylamine hydrochloride]
CC50 at 72 h [1]: 12.6 µM
CC50 [2]: 16.4 µM
